Experiment [1] addresses ATR (endogenous, MCF7 cells) (human (endogenous in MCF7)) (UniProt Q13535). Kind of experiment: co-IP; MCF7 cells without or with HU (1 mM, 24 hours); lysates treated with benzonase 1 U/μl on ice for 1 hour; IP of endogenous ATR; Western blot. (Immunoblotting shows a protein as a band on a membrane.)
In experiment [2] the target is BMI1 (ectopic, co-transfected with TOPBP1 in 293T cells) (UniProt P35226). Description: co-IP; 293T cells co-transfected with BMI1 and TOPBP1 for 36 hours, without or with HU (1 mM, 24 hours); lysates IP with anti-BMI1 or control IgG, with or without ethidium bromide (50 μg/ml); Western blot for TOPBP1, BMI1 and ATR.
For experiment [3], the target named is BMI1 (endogenous, MCF7 cells) (human (endogenous in MCF7)) (UniProt P35226). Kind of experiment: co-IP; MCF7 cells without or with HU (1 mM, 24 hours); lysates treated with benzonase 1 U/μl on ice for 1 hour; IP of endogenous BMI1; Western blot.

The chains behind the UniProt entries cited, without tags or fusion partners.
UniProt Q13535: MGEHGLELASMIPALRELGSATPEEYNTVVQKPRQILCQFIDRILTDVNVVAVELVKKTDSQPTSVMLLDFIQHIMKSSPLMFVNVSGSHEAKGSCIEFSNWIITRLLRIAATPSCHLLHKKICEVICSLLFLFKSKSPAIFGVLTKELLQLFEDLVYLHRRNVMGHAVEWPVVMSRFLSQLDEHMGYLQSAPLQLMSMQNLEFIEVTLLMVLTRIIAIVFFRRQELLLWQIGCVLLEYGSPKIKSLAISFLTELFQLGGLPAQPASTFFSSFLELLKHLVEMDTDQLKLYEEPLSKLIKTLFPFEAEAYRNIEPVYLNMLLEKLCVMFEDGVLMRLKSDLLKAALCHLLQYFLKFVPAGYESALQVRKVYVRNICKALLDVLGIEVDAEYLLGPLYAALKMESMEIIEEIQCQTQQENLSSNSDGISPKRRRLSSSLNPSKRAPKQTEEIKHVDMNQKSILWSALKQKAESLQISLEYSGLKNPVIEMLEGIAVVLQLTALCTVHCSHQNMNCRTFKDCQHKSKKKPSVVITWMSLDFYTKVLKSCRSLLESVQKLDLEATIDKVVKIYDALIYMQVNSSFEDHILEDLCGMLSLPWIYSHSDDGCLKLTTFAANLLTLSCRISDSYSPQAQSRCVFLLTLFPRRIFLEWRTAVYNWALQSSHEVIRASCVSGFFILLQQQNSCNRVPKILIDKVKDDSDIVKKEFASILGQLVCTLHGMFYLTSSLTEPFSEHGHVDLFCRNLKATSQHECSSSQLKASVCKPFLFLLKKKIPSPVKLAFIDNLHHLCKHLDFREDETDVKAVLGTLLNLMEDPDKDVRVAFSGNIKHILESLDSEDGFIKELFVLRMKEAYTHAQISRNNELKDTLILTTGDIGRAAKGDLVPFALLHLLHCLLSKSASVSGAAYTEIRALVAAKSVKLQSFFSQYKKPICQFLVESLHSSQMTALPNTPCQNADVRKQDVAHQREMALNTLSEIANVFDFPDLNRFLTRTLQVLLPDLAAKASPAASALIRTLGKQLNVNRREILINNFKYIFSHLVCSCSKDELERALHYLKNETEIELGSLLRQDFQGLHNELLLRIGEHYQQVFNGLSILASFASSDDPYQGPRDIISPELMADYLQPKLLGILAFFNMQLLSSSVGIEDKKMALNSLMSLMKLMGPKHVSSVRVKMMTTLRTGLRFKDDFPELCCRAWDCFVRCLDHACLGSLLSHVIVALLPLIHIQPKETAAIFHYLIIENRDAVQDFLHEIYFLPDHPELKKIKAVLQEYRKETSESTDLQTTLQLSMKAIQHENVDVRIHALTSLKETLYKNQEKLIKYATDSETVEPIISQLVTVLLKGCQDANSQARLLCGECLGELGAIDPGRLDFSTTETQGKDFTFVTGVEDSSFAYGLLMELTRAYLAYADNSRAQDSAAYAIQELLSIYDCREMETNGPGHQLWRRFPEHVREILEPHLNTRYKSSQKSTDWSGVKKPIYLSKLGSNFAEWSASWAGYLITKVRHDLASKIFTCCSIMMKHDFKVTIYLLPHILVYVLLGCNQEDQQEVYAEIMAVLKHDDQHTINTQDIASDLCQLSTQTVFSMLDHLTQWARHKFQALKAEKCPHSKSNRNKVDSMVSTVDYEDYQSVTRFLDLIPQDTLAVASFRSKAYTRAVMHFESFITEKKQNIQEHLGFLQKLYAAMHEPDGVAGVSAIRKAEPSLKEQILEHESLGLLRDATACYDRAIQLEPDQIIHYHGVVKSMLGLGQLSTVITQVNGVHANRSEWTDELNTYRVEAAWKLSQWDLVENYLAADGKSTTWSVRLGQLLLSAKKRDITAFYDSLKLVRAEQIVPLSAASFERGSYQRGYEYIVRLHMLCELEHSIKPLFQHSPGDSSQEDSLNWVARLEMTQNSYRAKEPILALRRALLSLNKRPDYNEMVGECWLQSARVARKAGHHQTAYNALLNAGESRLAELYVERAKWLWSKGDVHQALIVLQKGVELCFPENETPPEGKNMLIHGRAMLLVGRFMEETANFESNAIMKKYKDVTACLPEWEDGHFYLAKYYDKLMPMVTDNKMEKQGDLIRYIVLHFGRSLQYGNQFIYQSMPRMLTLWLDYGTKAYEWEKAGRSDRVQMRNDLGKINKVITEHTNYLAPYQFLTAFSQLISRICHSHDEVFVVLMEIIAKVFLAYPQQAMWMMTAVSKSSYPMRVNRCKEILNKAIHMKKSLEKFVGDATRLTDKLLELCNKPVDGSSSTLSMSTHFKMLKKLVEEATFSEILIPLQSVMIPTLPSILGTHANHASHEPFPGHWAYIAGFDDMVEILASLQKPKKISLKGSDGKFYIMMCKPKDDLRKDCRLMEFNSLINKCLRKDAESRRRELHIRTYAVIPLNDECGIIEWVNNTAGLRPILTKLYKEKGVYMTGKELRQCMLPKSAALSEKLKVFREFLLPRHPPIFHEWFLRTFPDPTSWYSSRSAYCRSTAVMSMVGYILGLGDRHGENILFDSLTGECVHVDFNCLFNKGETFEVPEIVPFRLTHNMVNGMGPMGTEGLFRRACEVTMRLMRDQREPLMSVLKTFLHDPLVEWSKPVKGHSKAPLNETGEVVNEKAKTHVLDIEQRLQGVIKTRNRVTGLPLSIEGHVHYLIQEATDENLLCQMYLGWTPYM
UniProt P35226: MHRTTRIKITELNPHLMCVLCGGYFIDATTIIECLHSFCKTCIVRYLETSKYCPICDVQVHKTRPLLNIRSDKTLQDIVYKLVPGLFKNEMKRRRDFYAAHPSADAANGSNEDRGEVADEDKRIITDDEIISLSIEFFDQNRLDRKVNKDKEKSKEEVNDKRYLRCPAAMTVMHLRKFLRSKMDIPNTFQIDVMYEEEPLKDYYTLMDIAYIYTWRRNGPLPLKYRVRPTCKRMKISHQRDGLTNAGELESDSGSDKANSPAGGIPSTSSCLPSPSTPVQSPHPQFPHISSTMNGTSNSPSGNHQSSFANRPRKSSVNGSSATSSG

This is an account of results in PMC5685703.

No constants are given. Whether binding was seen depends on the method and setting. Binding seen in cells or lysates may run through a third protein. Some entries that bind do so weakly or less than the wild type.

Take “BMI1 (endogenous, MCF7 cells) (from UniProt P35226 1-326)”: the binding entry in experiment [1] was “binds”.

With “ATR (endogenous, 293T cells) (from UniProt Q13535 1-2644)”, the binding entry in experiment [2] is “binds”.

On to “ATR (endogenous, MCF7 cells) (from UniProt Q13535 1-2644)”, for which, in experiment [3], the binding result is listed as “binds”.
